Assay results from patent US20090298769A1.
Results are given in words; binding and its absence hold for the method and conditions named. In cells and extracts the contact can be indirect. Some results given as binding are weak or reduced against the parent protein; the word gives no strength.

By UniProt entry, the sequences of proteins in these tests, tags left out. Where a name states a change or a piece, a line headed by the entry shows the natural chain unless it says otherwise. Residues count along the entry.
UniProt P06756: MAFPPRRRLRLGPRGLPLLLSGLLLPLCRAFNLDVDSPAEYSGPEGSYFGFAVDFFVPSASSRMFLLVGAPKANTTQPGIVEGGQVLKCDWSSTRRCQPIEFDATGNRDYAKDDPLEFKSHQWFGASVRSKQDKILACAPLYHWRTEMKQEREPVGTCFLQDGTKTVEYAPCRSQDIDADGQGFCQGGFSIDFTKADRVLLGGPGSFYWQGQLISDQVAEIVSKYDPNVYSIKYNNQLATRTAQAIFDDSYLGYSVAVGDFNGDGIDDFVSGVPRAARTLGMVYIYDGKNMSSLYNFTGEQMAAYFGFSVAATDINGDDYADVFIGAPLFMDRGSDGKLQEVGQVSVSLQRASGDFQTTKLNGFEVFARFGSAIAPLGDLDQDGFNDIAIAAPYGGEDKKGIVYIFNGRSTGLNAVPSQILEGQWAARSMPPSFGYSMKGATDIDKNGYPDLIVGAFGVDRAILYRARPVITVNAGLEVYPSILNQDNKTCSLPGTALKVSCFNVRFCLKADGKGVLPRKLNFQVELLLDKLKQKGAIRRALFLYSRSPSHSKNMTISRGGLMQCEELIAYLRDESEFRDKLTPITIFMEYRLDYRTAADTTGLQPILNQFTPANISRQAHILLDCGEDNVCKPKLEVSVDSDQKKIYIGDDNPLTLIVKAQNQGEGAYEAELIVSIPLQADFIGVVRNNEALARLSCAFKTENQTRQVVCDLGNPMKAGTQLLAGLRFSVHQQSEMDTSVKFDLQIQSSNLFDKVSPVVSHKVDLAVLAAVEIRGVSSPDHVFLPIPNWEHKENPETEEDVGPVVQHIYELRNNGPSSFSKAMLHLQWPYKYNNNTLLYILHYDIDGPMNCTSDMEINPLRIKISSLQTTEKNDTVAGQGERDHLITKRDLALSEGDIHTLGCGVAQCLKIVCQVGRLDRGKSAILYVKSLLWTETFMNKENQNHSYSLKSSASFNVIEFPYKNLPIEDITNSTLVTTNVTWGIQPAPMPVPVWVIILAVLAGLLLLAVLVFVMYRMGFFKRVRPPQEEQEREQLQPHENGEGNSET
UniProt P05106: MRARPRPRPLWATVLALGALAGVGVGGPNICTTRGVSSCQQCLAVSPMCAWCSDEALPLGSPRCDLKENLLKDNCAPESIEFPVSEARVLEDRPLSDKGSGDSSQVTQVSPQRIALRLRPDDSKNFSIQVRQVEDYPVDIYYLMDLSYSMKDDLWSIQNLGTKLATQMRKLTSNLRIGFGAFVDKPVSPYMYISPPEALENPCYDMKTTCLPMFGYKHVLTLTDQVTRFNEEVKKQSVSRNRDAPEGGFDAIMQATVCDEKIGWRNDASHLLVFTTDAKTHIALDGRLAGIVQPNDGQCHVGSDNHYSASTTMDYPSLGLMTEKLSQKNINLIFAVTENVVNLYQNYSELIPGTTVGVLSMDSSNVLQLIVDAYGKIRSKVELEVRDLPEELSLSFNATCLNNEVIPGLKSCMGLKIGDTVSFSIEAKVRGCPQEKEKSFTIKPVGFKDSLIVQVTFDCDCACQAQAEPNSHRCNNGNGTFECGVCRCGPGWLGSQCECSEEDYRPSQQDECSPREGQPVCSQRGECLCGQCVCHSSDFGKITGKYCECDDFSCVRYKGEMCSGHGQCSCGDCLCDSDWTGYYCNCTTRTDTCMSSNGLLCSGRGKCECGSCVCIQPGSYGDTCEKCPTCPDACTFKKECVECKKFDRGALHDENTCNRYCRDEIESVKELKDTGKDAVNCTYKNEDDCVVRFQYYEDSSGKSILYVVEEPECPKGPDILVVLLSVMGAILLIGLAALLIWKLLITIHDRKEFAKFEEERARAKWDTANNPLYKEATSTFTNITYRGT
UniProt P35918, residues 20-1345: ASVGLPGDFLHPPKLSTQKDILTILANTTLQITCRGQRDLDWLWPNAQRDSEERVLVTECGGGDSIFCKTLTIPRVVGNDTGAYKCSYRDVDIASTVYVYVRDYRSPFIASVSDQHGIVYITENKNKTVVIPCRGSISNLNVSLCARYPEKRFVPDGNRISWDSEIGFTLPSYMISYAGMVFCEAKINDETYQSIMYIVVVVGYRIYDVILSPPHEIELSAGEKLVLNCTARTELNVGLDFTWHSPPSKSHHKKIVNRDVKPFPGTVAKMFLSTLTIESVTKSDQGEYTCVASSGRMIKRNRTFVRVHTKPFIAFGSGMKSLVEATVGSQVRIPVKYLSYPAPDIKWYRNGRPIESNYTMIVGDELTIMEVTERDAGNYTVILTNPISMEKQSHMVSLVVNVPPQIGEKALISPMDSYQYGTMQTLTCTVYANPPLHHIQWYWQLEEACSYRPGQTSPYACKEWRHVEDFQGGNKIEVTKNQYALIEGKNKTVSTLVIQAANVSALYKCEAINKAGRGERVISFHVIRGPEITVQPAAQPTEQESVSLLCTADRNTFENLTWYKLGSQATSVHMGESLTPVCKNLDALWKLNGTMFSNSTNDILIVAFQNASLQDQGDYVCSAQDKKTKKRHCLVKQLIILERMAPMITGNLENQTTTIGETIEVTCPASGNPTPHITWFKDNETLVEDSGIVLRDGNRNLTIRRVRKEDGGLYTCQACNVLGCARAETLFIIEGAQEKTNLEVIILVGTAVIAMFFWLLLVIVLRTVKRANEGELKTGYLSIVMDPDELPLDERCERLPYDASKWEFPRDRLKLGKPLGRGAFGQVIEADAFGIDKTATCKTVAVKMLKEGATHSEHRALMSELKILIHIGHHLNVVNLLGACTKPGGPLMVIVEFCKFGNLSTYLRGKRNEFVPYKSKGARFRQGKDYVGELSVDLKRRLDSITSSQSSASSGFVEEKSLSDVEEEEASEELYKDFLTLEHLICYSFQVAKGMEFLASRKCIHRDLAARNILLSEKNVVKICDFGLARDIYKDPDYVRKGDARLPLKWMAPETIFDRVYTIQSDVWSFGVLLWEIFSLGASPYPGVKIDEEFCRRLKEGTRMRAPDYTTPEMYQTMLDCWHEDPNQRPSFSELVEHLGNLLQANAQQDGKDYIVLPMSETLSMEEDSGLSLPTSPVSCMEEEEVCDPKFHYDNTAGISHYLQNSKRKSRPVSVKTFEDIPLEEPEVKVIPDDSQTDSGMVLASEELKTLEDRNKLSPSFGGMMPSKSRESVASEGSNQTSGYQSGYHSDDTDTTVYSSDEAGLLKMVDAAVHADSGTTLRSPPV
UniProt P35968, residues 20-1356: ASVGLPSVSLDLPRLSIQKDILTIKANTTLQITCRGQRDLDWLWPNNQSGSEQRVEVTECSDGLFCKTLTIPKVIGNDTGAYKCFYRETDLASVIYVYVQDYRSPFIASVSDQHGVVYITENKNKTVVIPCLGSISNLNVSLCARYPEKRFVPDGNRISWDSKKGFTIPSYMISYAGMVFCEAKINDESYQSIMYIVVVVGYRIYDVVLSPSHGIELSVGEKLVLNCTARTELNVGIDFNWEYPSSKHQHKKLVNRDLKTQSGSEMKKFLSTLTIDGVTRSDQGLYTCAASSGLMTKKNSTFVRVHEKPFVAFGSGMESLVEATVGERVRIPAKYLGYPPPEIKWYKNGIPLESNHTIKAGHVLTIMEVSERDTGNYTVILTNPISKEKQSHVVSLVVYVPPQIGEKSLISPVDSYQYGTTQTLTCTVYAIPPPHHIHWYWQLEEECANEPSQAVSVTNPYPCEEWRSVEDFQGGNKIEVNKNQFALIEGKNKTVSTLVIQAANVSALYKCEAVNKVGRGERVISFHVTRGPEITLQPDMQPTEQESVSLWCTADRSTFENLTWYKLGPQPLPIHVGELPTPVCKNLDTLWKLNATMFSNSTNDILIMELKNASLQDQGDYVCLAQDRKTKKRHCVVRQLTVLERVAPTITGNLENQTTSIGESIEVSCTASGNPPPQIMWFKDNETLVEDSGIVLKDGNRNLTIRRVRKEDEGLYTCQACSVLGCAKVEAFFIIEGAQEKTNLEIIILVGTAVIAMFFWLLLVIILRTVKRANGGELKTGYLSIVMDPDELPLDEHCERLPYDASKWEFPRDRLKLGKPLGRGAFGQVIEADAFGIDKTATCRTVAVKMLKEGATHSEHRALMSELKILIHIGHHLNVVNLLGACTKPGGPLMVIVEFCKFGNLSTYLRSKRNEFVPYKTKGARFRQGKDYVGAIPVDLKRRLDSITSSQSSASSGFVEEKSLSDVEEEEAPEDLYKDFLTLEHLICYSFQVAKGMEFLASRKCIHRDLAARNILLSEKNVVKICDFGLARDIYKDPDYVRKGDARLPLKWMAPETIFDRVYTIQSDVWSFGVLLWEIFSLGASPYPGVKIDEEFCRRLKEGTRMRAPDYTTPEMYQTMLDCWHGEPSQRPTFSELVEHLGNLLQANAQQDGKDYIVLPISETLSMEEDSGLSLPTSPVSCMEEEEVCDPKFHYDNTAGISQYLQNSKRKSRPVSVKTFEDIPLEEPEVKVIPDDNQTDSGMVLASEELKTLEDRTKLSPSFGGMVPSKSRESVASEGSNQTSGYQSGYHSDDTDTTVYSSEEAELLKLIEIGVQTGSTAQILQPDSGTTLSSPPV
UniProt P43406: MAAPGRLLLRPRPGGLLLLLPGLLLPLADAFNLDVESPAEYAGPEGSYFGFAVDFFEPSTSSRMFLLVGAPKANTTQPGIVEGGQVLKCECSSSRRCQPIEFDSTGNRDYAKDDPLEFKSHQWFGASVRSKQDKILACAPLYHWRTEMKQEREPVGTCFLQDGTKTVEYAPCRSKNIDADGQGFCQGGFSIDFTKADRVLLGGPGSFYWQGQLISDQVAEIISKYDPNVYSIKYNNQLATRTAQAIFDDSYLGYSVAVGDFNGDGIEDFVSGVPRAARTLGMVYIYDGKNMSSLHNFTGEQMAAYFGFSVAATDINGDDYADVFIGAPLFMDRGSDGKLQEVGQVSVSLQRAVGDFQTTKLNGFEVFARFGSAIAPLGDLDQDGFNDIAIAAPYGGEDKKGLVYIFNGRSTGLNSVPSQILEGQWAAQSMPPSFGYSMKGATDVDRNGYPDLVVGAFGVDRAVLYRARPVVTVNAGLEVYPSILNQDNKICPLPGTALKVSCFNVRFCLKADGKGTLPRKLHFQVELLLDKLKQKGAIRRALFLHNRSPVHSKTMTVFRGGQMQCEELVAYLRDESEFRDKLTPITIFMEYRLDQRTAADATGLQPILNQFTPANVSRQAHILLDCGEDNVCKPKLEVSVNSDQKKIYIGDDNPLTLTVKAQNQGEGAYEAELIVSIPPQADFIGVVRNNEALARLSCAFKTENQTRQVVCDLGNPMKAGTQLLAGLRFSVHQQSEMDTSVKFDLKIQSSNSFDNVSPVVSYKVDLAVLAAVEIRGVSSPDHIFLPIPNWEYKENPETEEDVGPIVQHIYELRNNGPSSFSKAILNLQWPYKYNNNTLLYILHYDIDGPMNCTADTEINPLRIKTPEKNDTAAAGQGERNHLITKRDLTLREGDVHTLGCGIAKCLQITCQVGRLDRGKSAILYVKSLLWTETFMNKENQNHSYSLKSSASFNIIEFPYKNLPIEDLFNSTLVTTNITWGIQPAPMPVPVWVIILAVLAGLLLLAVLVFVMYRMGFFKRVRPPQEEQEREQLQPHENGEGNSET

Legend:
[1] = target: T1, αvβ3 integrin on human endothelial cells (HUVEC; vessels of human prostate tissue) (human) (UniProt P06756+P05106); assay: discussion of Example 5 (co-immunoprecipitation)
[2] = target: T1, αvβ3 integrin on human endothelial cells (HUVEC; vessels of human prostate tissue) (human); assay: co-immunoprecipitation (anti-VEGFR-2 IP, anti-integrin β3 blot), HUVEC with VEGF
[3] = target: VEGFR-2 of mouse lung endothelial cells (mouse) (UniProt P35918); assay: co-immunoprecipitation (anti-β3 IP, anti-VEGFR-2 blot), WT mouse lung EC
[4] = target: VEGFR-2 of mouse lung endothelial cells (mouse) (UniProt P35918); assay: co-immunoprecipitation (anti-β3 IP, anti-VEGF receptor blot)
[5] = target: VEGFR-2 of mouse lung endothelial cells (mouse) (UniProt P35918); assay: co-immunoprecipitation (anti-β3 IP, anti-VEGFR-2 blot), wild type mouse lung EC on vitronectin

binding [1]	binding [2]	binding [3]	binding [4]	binding [5]	Substance
binds	binds	–	–	–	VEGFR-2 of human endothelial cells (HUVEC) (from UniProt P35968 20-1356) (receptor)
–	–	binds	binds	binds	αvβ3 integrin, wild type, on mouse lung endothelial cells (from UniProt P43406 31-1044; O54890 26-787) (receptor)
